# Out of some 220,000 compounds screened, about 2,400 (1.1%) were called active. This list was built around the results that the source calls inconclusive (neither active nor inactive); the mix of calls is not that of the screen. Calls come from the whole dose curve; as a rule, active = well fitted inhibition curve with a large enough effect; inconclusive = small, poorly fitted or top-dose-only effect, or effect the other way; inactive = no such curve, though single readings can be large or run the other way. Potencies beside an inconclusive call are fits to weak or partial responses and may not hold up.
# Experiment: qHTS Multiplex Assay to Identify Dual Action Probes in a Cell Model of Huntington: Aggregate Formation (GFP); note: nearly all actives have a fitted effect of over 60% in size
# Conditions: PC12 HttQ103-GFP aggregates, Acumen cytometry, 40 h; activity change, negative = inhibition: at 46.1 µM (top of the series) unless noted
# Method in brief: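 Huntingtin Q103 exon 1–GFP aggregates in induced PC12 cells (100 nM tebufenozide) were quantified by cytometry from lysates, with compounds dosed in titration.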
# % is set by controls: 0 for no effect and ±100 for the full control effect; potency is the fitted concentration of half-maximal effect.
SMILES,Potency,"activity change, negative = inhibition"
CCOC(=O)N1CCc2c(sc3nc(SC(C)C)n(N)c(=O)c23)C1,"inconclusive: 25.1 µM [inhibitor, single point]",–
COc1cc(C2NCC(c3ccc(Cl)cc3Cl)c3c2[nH]c2ccccc32)cc(OC)c1OC (stereo not given),"inconclusive: 25.1 µM [inhibitor, single point]",–
CC(N)c1ccc(Cl)cc1Cl (stereo not given),"inconclusive: 3.16 µM [inhibitor, partial curve]",–
Oc1ccc2c(c1)C1CCCC1(N1CCOCC1)O2 (stereo not given),inactive,–
CCn1c2ccccc2c2cc(N)ccc21,"inconclusive: 35.5 µM [inhibitor, single point]",–
COc1ccc(-n2c(C)cc(C(=O)CSc3nnc(-c4cccs4)o3)c2C)cc1,active: 7.94 µM,–
COc1ccc(NC(=O)c2ccccc2-c2ccccc2)c(C)c1,inactive,–
COc1ccc(OC)c(NC(=O)CC2SC(=NCc3ccccc3)NC2=O)c1 (stereo not given),inactive,–
CCn1c(SCC(=O)N/N=C/C=C\c2ccco2)nc2ccccc21,"inconclusive: 35.5 µM [activator, single point]",–
COc1cccc(N2C(C(C)=O)=NN(c3ccccc3)C2c2ccc(N3CCOCC3)cc2)c1 (stereo not given),active: 11.2 µM,–
Cc1ccc(C(C(=O)NC2CCCCC2)N(Cc2ccccc2)C(=O)Cc2c[nH]c3ccccc23)o1 (stereo not given),active: 20 µM,–
CCCC1(c2ccccc2)NC(=O)N(CC(=O)c2[nH]c(C)c(C(=O)OCC)c2C)C1=O (stereo not given),"inconclusive: 35.5 µM [inhibitor, single point]",–
C=CCn1c(SCC(=O)N2N=C(c3ccco3)CC2c2ccco2)nnc1-c1ccncc1 (stereo not given),"inconclusive: 35.5 µM [activator, single point]",–
Cc1ccc(Nc2cc(C)c3c(O)cccc3n2)cc1C,–,inactive: -8.6% [at 9.22 µM]
CN(C)S(=O)(=O)Oc1ccsc1C(=O)Nc1cccc(Cl)c1,"inconclusive: 31.6 µM [inhibitor, single point]",–
CCc1oc2ccccc2c1C(=O)c1cc(I)c(O)c(I)c1,inactive,–
COc1cccc(NC(=O)Nc2cc(Cl)ccc2C)c1,"inconclusive: 4.47 µM [inhibitor, full curve]",–
c1ccc(CCNc2nc(-c3ccncc3)cs2)cc1,"inconclusive: 22.4 µM [inhibitor, partial curve]",–
O=c1c2c(nc3nc(Cc4ccccc4)[nH]n13)CCC2,inactive,–
CC(C)(C)c1ccc(S(=O)(=O)N2CCCCC2C(=O)NCc2ccccn2)cc1 (stereo not given),"inconclusive: 35.5 µM [inhibitor, single point]",–
Cn1nc(-c2ccc(Cl)cc2)nc2c(=O)n(C)c(=O)nc1-2,"inconclusive: 35.5 µM [inhibitor, single point]",–
Fc1ccc(CSc2nncn2NCc2ccccc2)cc1,inactive,–
O=C(c1nc2ccccn2c1CNCCCn1nnc2ccccc21)N1CCOCC1,"inconclusive: 1.26 µM [activator, single point]",–

SMILES,Potency,"activity change, negative = inhibition"
COc1ccc(N(C)S(=O)(=O)c2ccc(Cl)c(C(=O)NCCc3ccc(Cl)cc3)c2)cc1,"inconclusive: 22.4 µM [inhibitor, single point]",–
O=[N+]([O-])/C=C\c1ccc(N2CCCC2)c(F)c1,"inconclusive: 35.5 µM [inhibitor, single point]",–
O=C(N/N=C/c1cc(Cl)ccc1O)c1ccc(Br)cc1,"inconclusive: 2.51 µM [inhibitor, full curve]",–
O=C(NCc1cccc(F)c1)C1CCN(S(=O)(=O)Cc2ccccc2)CC1,inactive,–
CCc1ccc(C2=NN(CCC(=O)NC(C)CCc3ccccc3)C(=O)CC2)cc1 (stereo not given),inactive,–
O=C(Nc1ccc2oc(-c3ccccc3)nc2c1)c1cccnc1,inactive,–
COc1cc2c(cc1OC)/C(=C/C(=O)N1CCOCC1)NC(C)(C)C2,"inconclusive: 0.794 µM [inhibitor, partial curve]",–
Cc1ccc(S(=O)(=O)Nc2cccc3cccnc23)cc1,active: 12.6 µM,–
Cc1ccc(S(=O)(=O)C2(C(=O)NCc3ccc4c(c3)OCO4)CC2)cc1,"inconclusive: 11.2 µM [inhibitor, partial curve]",–
COc1ccc(Nc2cnn(-c3nc4ccccc4s3)c(=O)c2Cl)cc1,"inconclusive: 35.5 µM [inhibitor, single point]",–
COc1ccc(N/N=C(\C#N)C(=N)SCc2ccccc2)cc1,active: 7.94 µM,–
COc1ccc(-c2nnc(SCc3cccc(C#N)c3)o2)cc1,"inconclusive: 5.62 µM [activator, single point]",–
O=C(CNC(=O)Cc1ccccc1)N=Nc1c(O)n(Cc2ccc3c(c2)OCO3)c2ccccc12,"inconclusive: 1.26 µM [inhibitor, single point]",–
CN(c1cccc(NC(=O)CN(c2ccc(Cl)c(Cl)c2)S(=O)(=O)c2ccccc2)c1)S(C)(=O)=O,"inconclusive: 35.5 µM [inhibitor, single point]",–
c1ccc(-c2nc3nonc3nc2-c2ccccc2)cc1,active: 3.16 µM,–
O=C(c1ccncc1)N(c1ccc2oc3c(c2c1)CCCC3)S(=O)(=O)c1ccc(F)cc1,"inconclusive: 22.4 µM [inhibitor, single point]",–
CCOC(=O)N1CCN(C(=O)COc2cccc3c2CCN(Cc2ccc(F)cc2)C3=O)CC1,"inconclusive: 22.4 µM [inhibitor, single point]",–
Cc1ccc(S(=O)(=O)c2c(C)nn(C(C)(C)C)c2OC(=O)c2ccco2)cc1,"inconclusive: 31.6 µM [inhibitor, single point]",–
O=C1CC(c2ccccc2)=NN1c1nc(-c2ccccc2)cs1,"inconclusive: 35.5 µM [inhibitor, single point]",–
CCOC(=O)CNS(=O)(=O)c1cc(-c2nn(C)c(=O)c3ccccc23)ccc1C,inactive,–
O=S(=O)(Nc1ccc(Cc2ccncc2)cc1)c1ccc(Cl)cc1,"inconclusive: 5.62 µM [inhibitor, single point]",–
CN1/C(=C\C=Nc2ccc3ccccc3c2)C(C)(C)c2ccccc21,"inconclusive: 15.8 µM [inhibitor, single point]",–

# Complete entries, looked up by structure.
# O=C(c1ccncc1)N(c1ccc2oc3c(c2c1)CCCC3)S(=O)(=O)c1ccc(F)cc1 is entered as Potency: inconclusive: 22.4 µM [inhibitor, single point]
# COc1ccc(Nc2cnn(-c3nc4ccccc4s3)c(=O)c2Cl)cc1 is entered as Potency: inconclusive: 35.5 µM [inhibitor, single point]
